Results deposited as PubChem BioAssay AID686938 (Drosophila RNAi Screening Center, 2013).
In all, the deposit lists about 23,000 reagents; this is a random part of those that have a named target and a result. Over the whole deposit, 75 (0.33%) got an active call. 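Raw plate signals without normalisation; calls rest on plate z-scores that were not deposited; ratio present for only 364 wells.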 Entries without a mark were called inactive. Reagents against one gene are numbered here. A plus sign joins genes that one reagent is predicted to hit. The record does not give: the dose of the treatment.

Assay: 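Fly genes required for calcium entry once internal stores are emptied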 (primary screen)
Cells: Drosophila S2R+ cells
Reagent: long dsRNA against Drosophila genes, about 0.25 µg dsRNA per well, roughly 10,000 cells
Time to read-out: 5 days of knock-down before the calcium assay
Treatment: thapsigargin (SERCA pump blocker) to empty calcium stores; entry signal taken 4 min after adding it
Measured: 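Duplicate raw fluo-4 intensities per well from a plate reader, at rest and four minutes after thapsigargin emptied calcium stores; entry-to-rest ratio filled for only some wells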
Reading the numbers: calcium entry signal: higher = stronger calcium signal after store depletion; entry to resting ratio: higher = more calcium entry relative to resting level; resting calcium signal: higher = higher resting calcium signal
Units: calcium entry signal in fluorescence units; resting calcium signal in fluorescence units
Rule for the call: 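Hit if the duplicate-averaged plate z-score for entry over resting signal is under −3; wells with weak total dye signal (Fmax z < −2) or more than 5 off-targets removed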
Calls: active = strongly reduced calcium entry; inactive = no strong reduction

target gene	reagent no.	calcium entry signal, replicate 1	calcium entry signal, replicate 2	entry to resting ratio	resting calcium signal, replicate 1	resting calcium signal, replicate 2
CG34242	1	3.70e7	3.64e7		1.99e7	1.89e7
CG8117	1	3.58e7	3.40e7		1.79e7	1.45e7
CG3829	1	3.63e7			1.80e7	
prom	1	4.08e7	4.89e7		2.06e7	2.16e7
prom	2	1.93e7	2.56e7		1.04e7	1.11e7
prom	3	3.81e7	6.44e7		1.83e7	3.61e7
CG42254 (retired record)	1	3.40e7	3.93e7		1.68e7	1.70e7
CG7367	1	2.40e7	3.41e7		1.24e7	1.49e7
Acam + CG17770	1	4.53e7	4.84e7		2.13e7	2.00e7
Acam + CG17770	2	4.47e7	5.61e7		2.09e7	2.40e7
CG8468	1	3.93e7	3.76e7		2.14e7	1.72e7
UK114	1	3.58e7	2.92e7		1.69e7	1.28e7
Kap-alpha3	1	2.55e7	2.80e7		1.31e7	1.56e7
CG11360	1	4.19e7	4.15e7		1.92e7	1.66e7
CG11360	2	4.31e7	5.83e7	2	2.18e7	2.44e7
bru1	1	2.84e7	2.53e7		1.84e7	1.56e7
bru1	2	4.93e7	5.18e7		2.46e7	2.60e7
bru1	3	4.49e7	4.64e7		2.23e7	2.00e7
bru1	4	4.38e7	4.50e7		2.11e7	1.94e7
bru1	5	4.41e7			2.32e7	
CG18538	1	4.90e7	7.17e7		2.19e7	3.11e7
TwdlV	1	3.53e7	5.35e7		1.70e7	2.36e7
Mondo	1	3.81e7			1.90e7	
Mondo	2	4.50e7	4.59e7		2.24e7	2.03e7
Mondo	3	2.33e7	4.53e7		1.18e7	1.96e7
fzr	1	3.23e7	4.65e7		1.57e7	2.13e7
Ssl1	1	4.04e7	4.56e7		1.83e7	3.50e7

Next part, starting with the last 4 of the part before.
target gene	reagent no.	calcium entry signal, replicate 1	calcium entry signal, replicate 2	entry to resting ratio	resting calcium signal, replicate 1	resting calcium signal, replicate 2
Mondo	2	4.50e7	4.59e7		2.24e7	2.03e7
Mondo	3	2.33e7	4.53e7		1.18e7	1.96e7
fzr	1	3.23e7	4.65e7		1.57e7	2.13e7
Ssl1	1	4.04e7	4.56e7		1.83e7	3.50e7
CG6293	1	3.49e7	4.45e7		1.51e7	1.85e7
ppk24	1	3.29e7	5.88e7		1.60e7	2.40e7
CG34241	1	5.68e7	5.17e7		2.80e7	2.34e7
Wdr37	1	5.04e7	3.88e7		2.25e7	1.75e7
Klc	1	5.55e7	4.45e7		3.62e7	1.85e7
CG1441	1	3.71e7	3.06e7		1.59e7	1.49e7
CG34428	1	3.26e7	4.10e7		1.62e7	1.79e7
Elp2	1	4.67e7	4.39e7		1.87e7	1.83e7
CG15124	1	4.38e7	5.37e7		1.85e7	2.29e7
MtnC	1	3.99e7	3.58e7		2.03e7	1.54e7
Spec2 (retired record)	1	4.59e7	2.93e7		2.21e7	1.37e7
Spec2 (retired record)	2	5.70e7	3.68e7		3.26e7	1.83e7
CG5087	1	3.39e7	4.70e7		1.56e7	2.05e7
qkr58E-3	1	4.20e7			2.13e7	
rho-5	1	3.38e7	3.93e7		1.69e7	1.93e7
pinta	1	3.40e7	3.33e7		1.61e7	1.50e7
CG15249	1	3.85e7	4.93e7		1.87e7	2.48e7
CG40005 (retired record) + cta	1	3.61e7	6.23e7		1.60e7	2.52e7
Fs(2)Ket	1	8.96e6			8.08e6	
CG18641	1	3.29e7	2.98e7		1.50e7	1.35e7
CG13928	1	3.94e7	4.81e7		2.00e7	2.18e7
Ggt-1	1	3.85e7	3.57e7		1.74e7	1.71e7
CG18404	1	2.63e7	4.16e7		1.49e7	1.93e7
CG15914	1	3.67e7	3.17e7		1.93e7	1.56e7
CG40948 (retired record)	1	4.89e7	2.62e7		3.31e7	1.20e7
CG15005	1	3.85e7	3.65e7		2.07e7	1.71e7
CG33301	1	2.54e7	3.84e7		1.05e7	1.76e7
PolE4	1	1.68e7	2.50e7		1.05e7	1.14e7
CG17350	1	6.47e7	5.47e7		3.04e7	2.42e7
Ggamma1	1	3.90e7	4.55e7		1.70e7	2.07e7
CG13996	1	4.35e7	3.72e7		1.98e7	1.67e7
